Laboratory results: doi:10.1101/134304
Results are given in words; binding and its absence hold for the method and conditions named. Binding seen in cells or lysates may run through a third protein. Some entries that bind do so weakly or less than the wild type. Where a sequence is shown, tags or fusion partners need not be part of it.

Amino acid sequences for entries named in this document (tags omitted).
UniProt A8DY81: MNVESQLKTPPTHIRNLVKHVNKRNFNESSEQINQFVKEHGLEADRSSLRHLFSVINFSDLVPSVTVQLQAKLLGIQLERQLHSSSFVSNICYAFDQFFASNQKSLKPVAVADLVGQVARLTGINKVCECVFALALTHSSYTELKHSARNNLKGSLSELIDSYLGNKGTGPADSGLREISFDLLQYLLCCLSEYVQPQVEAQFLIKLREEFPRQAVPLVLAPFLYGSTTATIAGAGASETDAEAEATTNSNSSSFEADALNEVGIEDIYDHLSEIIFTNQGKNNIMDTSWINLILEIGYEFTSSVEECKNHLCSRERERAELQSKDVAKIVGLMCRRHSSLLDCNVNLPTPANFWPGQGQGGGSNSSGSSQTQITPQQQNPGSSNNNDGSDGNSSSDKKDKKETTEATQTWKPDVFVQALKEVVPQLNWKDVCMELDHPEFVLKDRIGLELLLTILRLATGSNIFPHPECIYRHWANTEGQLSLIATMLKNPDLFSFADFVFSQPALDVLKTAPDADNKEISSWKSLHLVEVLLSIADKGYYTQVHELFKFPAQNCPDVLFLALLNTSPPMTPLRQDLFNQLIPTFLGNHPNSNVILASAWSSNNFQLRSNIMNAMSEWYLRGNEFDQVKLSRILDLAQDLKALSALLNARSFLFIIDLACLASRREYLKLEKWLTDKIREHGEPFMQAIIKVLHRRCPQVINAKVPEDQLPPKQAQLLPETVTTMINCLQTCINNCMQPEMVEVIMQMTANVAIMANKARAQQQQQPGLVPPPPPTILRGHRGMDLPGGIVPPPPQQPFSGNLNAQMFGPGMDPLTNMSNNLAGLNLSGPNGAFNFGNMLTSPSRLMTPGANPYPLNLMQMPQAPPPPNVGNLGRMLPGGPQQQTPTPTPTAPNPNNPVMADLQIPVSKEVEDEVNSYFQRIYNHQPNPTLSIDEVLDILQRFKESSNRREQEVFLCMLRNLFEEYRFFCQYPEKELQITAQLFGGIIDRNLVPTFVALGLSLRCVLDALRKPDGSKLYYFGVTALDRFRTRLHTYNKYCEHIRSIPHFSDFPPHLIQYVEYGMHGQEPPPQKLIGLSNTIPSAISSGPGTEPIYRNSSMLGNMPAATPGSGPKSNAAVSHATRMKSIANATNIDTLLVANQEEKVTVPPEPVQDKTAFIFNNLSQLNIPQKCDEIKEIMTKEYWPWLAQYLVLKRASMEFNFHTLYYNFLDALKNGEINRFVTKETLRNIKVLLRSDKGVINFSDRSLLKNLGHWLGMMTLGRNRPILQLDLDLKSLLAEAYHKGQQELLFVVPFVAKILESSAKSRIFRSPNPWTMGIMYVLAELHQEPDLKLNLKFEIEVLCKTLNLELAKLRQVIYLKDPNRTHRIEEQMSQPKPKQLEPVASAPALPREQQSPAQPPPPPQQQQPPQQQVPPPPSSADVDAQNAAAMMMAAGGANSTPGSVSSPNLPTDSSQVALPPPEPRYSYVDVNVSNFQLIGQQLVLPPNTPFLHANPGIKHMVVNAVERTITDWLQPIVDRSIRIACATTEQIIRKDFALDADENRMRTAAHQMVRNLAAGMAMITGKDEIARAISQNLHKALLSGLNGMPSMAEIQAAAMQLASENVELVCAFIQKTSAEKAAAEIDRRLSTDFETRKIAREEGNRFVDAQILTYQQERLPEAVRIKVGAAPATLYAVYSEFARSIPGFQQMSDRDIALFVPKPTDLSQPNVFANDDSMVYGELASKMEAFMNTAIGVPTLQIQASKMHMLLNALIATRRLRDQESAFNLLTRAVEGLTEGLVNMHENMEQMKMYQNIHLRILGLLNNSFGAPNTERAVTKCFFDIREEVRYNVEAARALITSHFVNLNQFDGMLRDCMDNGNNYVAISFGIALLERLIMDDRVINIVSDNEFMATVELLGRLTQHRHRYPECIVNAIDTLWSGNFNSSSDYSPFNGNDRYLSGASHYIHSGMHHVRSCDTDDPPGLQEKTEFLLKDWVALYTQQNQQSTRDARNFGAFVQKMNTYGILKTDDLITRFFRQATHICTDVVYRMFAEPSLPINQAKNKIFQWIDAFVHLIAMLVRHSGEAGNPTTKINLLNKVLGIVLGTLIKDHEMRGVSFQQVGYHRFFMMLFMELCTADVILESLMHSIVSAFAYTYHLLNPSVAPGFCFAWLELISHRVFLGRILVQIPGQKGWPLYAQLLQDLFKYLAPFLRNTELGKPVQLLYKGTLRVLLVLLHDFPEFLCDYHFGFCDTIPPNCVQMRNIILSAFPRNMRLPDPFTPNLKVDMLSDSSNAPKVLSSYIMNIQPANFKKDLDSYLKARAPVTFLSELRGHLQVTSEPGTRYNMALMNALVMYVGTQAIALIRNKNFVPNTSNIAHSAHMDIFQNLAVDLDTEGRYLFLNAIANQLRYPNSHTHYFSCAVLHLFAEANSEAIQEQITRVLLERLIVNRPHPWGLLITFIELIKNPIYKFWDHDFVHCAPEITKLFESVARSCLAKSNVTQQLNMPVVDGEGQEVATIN

Molecular target: T1, GFP-Aub (Aubergine) (Drosophila) (UniProt O76922)
T1 sequence: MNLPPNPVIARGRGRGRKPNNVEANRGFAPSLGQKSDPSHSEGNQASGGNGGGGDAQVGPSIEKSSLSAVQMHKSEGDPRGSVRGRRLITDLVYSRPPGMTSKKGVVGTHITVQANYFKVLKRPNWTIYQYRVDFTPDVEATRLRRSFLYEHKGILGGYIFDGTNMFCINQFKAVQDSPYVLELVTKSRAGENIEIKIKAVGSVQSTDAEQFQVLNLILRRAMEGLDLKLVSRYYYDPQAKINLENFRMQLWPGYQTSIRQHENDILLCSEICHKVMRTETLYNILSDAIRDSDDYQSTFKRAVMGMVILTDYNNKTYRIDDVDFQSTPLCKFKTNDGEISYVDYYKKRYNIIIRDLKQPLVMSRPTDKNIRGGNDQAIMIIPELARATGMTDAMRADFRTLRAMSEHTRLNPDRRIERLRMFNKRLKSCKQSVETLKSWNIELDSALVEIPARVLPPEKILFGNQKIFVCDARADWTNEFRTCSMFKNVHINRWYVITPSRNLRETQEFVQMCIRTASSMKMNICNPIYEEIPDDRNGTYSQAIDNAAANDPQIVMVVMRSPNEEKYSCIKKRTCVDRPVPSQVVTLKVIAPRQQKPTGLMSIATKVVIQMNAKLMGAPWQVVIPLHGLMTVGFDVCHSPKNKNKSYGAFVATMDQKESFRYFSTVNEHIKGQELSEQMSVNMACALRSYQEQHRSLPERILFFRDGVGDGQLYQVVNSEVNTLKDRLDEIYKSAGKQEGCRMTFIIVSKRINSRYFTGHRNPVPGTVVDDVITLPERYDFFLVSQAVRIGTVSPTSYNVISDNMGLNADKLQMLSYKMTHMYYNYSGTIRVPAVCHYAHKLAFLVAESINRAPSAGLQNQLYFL
Experiment: co-IP

With “NOT1 (subunit of the CCR4-NOT deadenylation complex) (from UniProt A8DY81 1-2505)” the binding was “binds”.
